Where a name gives a salt, the structure may show the parent alone. Some of the results follow. Hit calls seldom repeat between salt and free forms of one compound.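 Kinases were expressed as nanoluciferase fusions in K562 cells and luminescence was read every 4 h between 2 and 18 h as percent of control, DMSO set to 100% and a positive control to 0%. A time point counts as decreased when the signal drops significantly (2 sigma). The hit call is the authors' own, does not follow from the count of time points alone, and its rule is not shown.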
biological target: CDK6 (UniProt Q00534); assay: number of time points (of 5) at which kinase-Nluc abundance scored as decreased, DMSO-normalised (count); higher = more persistent destabilization; conditions: K562; 2-18 h

Protein sequences, listed by entry. Tags and fused reporters are not part of them.
UniProt Q00534, whole entry: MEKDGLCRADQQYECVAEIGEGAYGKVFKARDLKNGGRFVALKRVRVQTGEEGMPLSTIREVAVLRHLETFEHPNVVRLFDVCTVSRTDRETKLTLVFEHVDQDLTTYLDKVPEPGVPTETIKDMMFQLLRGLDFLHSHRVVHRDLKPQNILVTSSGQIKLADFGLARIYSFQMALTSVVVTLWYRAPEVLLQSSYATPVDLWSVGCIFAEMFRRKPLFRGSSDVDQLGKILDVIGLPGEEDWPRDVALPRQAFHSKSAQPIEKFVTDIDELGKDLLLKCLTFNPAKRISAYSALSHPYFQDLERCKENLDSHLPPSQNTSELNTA

Row | SMILES | number of time points
1 | C[C@@H]1CCN(C(=O)CC#N)C[C@@H]1N(C)c1ncnc2[nH]ccc12 [Tofacitinib] (10 µM) | 0
2 | CC#CC(=O)N1CC[C@@H](n2c(=O)n(-c3ccc(Oc4ccccc4)cc3)c3c(N)ncnc32)C1 [Tirabrutinib (hydrochloride)] (10 µM) | 0
3 | Cc1ccc(C(=O)Nc2ccc(Oc3cc4cnn(C)c4cc3-c3cn[nH]c3)c(F)c2)c(=O)n1-c1ccc(F)cc1 [Merestinib] (2.5 µM) | 0
4 | Cc1cc(Nc2ncnc3ccc(NC4=NC(C)(C)CO4)cc23)ccc1Oc1ccn2ncnc2c1 [Tucatinib (hemiethanolate)] (2.5 µM) | 0
5 | C[C@@]1(c2ncncc2F)NC(=O)c2cc(-c3cn[nH]c3)ccc21 (10 µM) | 0
6 | COc1cc(Nc2ncc(F)c(Nc3ccc4c(n3)NC(=O)C(C)(C)O4)n2)cc(OC)c1OC (10 µM) | 0
7 | Cc1cc2ncc(-c3ccc(O)c(O)c3)nc2cc1C [Tyrphostin AG1433] (10 µM) | 0
8 | C=CC(=O)Nc1cccc(Nc2nc(Nc3ccc(N4CCN(C(C)=O)CC4)cc3OC)ncc2C(F)(F)F)c1 [Rociletinib hydrobromide] (10 µM) | 0
9 | Cc1cc(Nc2ncnc3ccc(NC4=NC(C)(C)CO4)cc23)ccc1Oc1ccn2ncnc2c1 [Tucatinib] (2.5 µM) | 0
10 | CCc1cc2c(cc1N1CCC(N3CCOCC3)CC1)C(C)(C)c1[nH]c3cc(C#N)ccc3c1C2=O [Alectinib (Hydrochloride)] (2 µM) | 0
11 | Cn1nccc1Nc1nccc(-c2ccn([C@H](CO)c3ccc(Cl)c(F)c3)c(=O)c2)n1 [Ravoxertinib hydrochloride] (10 µM) | 0
12 | COc1cc2c(N3CCN(C(=O)Nc4ccc(OC(C)C)cc4)CC3)ncnc2cc1OCCCN1CCCCC1 [Tandutinib] (10 µM) | 0
13 | CC#CC(=O)N1CC[C@@H](n2c(=O)n(-c3ccc(Oc4ccccc4)cc3)c3c(N)ncnc32)C1 [Tirabrutinib] (10 µM) | 0
14 | C=CC(=O)Nc1cccc(Nc2nc(Nc3ccc(N4CCN(C(C)=O)CC4)cc3OC)ncc2C(F)(F)F)c1 [Rociletinib] (10 µM) | 0
15 | COc1cc(Nc2ncc(F)c(Nc3ccc4c(n3)N(COP(=O)(O)O)C(=O)C(C)(C)O4)n2)cc(OC)c1OC [Fostamatinib Disodium] (10 µM) | 0
16 | COc1cc2c(N3CCN(C(=O)Nc4ccc(OC(C)C)cc4)CC3)ncnc2cc1OCCCN1CCCCC1 [Tandutinib (hydrochloride)] (10 µM) | 0
17 | COc1cc(Nc2ncc(F)c(Nc3ccc4c(n3)N(COP(=O)(O)O)C(=O)C(C)(C)O4)n2)cc(OC)c1OC [Fostamatinib (disodium hexahydrate)] (10 µM) | 0
18 | COc1cc2nccc(Oc3ccc(NC(=O)NC4CC4)c(Cl)c3)c2cc1C(N)=O [Lenvatinib (mesylate)] (10 µM) | 0
19 | Oc1ccc(Nc2nc(-c3ccc(Cl)cc3)cs2)cc1 (10 µM) | 0
20 | NC(=O)c1nc(Nc2ccccc2)sc1NC(=O)C1CCCCC1 (10 µM) | 0

Row | SMILES | number of time points
21 | CC1=C(C(=O)O)N2C(=O)[C@@H](NC(=O)[C@H](N)C3=CCC=CC3)[C@H]2SC1 [Cephradine] (10 µM) | 0
22 | Cc1ccc(C(=O)Nc2ccc(Oc3cc4cnn(C)c4cc3-c3cn[nH]c3)c(F)c2)c(=O)n1-c1ccc(F)cc1 [Merestinib dihydrochloride] (2.5 µM) | 0
23 | Cc1ccc2nc(NCCN)c3ncc(C)n3c2c1 (2.5 µM) | 0
24 | CC(=O)NC1CC(n2cnc(NC(=O)Cc3ccc4ccccc4c3)c2)C1 (centres undefined) (10 µM) | 0
25 | COc1cc2nccc(Oc3ccc(NC(=O)NC4CC4)c(Cl)c3)c2cc1C(N)=O [Lenvatinib] (10 µM) | 0
26 | Cn1cnc2c(F)c(Nc3ccc(Br)cc3Cl)c(C(=O)NOCCO)cc21 [Selumetinib (sulfate)] (10 µM) | 0
27 | CCN1CCN(Cc2ccc(Nc3ncc(F)c(-c4cc(F)c5nc(C)n(C(C)C)c5c4)n3)nc2)CC1 [Abemaciclib] (2 µM) | 0
28 | C[C@@H]1CCN(C(=O)CC#N)C[C@@H]1N(C)c1ncnc2[nH]ccc12 [Tofacitinib (citrate)] (10 µM) | 0
29 | Cn1nccc1Nc1nccc(-c2ccn([C@H](CO)c3ccc(Cl)c(F)c3)c(=O)c2)n1 [Ravoxertinib] (10 µM) | 0
30 | COc1cc(Nc2ncc(F)c(Nc3ccc4c(n3)NC(=O)C(C)(C)O4)n2)cc(OC)c1OC [R406 (free base)] (10 µM) | 0
31 | S=C(SSC(=S)N1CCOCC1)N1CCOCC1 (10 µM) | 0
32 | CC1CCc2c(cc(Br)c(F)c2Br)N1C=O (centres undefined) (10 µM) | 0
33 | Cc1[nH]c(/C=C2\C(=O)Nc3ccccc32)c(C)c1CCC(=O)O [(Z)-Orantinib] (10 µM) | 0
34 | CCN1CCN(Cc2ccc(Nc3ncc(F)c(-c4cc(F)c5nc(C)n(C(C)C)c5c4)n3)nc2)CC1 [Abemaciclib (methanesulfonate)] (10 µM) | 0
35 | Cn1cnc2c(F)c(Nc3ccc(Br)cc3Cl)c(C(=O)NOCCO)cc21 [Selumetinib] (10 µM) | 0
36 | CCc1cc2c(cc1N1CCC(N3CCOCC3)CC1)C(C)(C)c1[nH]c3cc(C#N)ccc3c1C2=O [Alectinib] (10 µM) | 0
37 | C=C(CC[C@@H](C(=O)O)[C@H]1[C@H](O)C[C@@]2(C)C3=C(CC[C@]12C)[C@@]1(C)CC[C@H](OC(C)=O)C(C)(C)[C@@H]1CC3)C(C)C [Pachymic acid] (10 µM) | 0
38 | Cc1[nH]c(/C=C2\C(=O)Nc3ccccc32)c(C)c1CCC(=O)O [Orantinib] (10 µM) | 0
39 | C=CC(=O)Nc1ccc(CN2C(=O)N(c3cc(OC)cc(OC)c3)Cc3cnc(Nc4ccc(N5CCN(C)CC5)cc4)nc32)cc1 (2.5 µM) | 0

Another view of some results above.
Row	SMILES	number of time points
12	COc1cc2c(N3CCN(C(=O)Nc4ccc(OC(C)C)cc4)CC3)ncnc2cc1OCCCN1CCCCC1 [Tandutinib] (10 µM)	0
13	CC#CC(=O)N1CC[C@@H](n2c(=O)n(-c3ccc(Oc4ccccc4)cc3)c3c(N)ncnc32)C1 [Tirabrutinib] (10 µM)	0
14	C=CC(=O)Nc1cccc(Nc2nc(Nc3ccc(N4CCN(C(C)=O)CC4)cc3OC)ncc2C(F)(F)F)c1 [Rociletinib] (10 µM)	0
15	COc1cc(Nc2ncc(F)c(Nc3ccc4c(n3)N(COP(=O)(O)O)C(=O)C(C)(C)O4)n2)cc(OC)c1OC [Fostamatinib Disodium] (10 µM)	0
16	COc1cc2c(N3CCN(C(=O)Nc4ccc(OC(C)C)cc4)CC3)ncnc2cc1OCCCN1CCCCC1 [Tandutinib (hydrochloride)] (10 µM)	0
17	COc1cc(Nc2ncc(F)c(Nc3ccc4c(n3)N(COP(=O)(O)O)C(=O)C(C)(C)O4)n2)cc(OC)c1OC [Fostamatinib (disodium hexahydrate)] (10 µM)	0
18	COc1cc2nccc(Oc3ccc(NC(=O)NC4CC4)c(Cl)c3)c2cc1C(N)=O [Lenvatinib (mesylate)] (10 µM)	0

From the supplement of paper PMC12823440, “Inhibitors supercharge kinase turnover through native proteolytic circuits” (Nature, 2025)
